Source: publication PMC4861493, “Functional Evolution in Orthologous Cell-encoded RNA-dependent RNA Polymerases*” (The Journal of Biological Chemistry, 2016)
The exact form of at least one protein or probe is not confirmed. For part of these data: At least one verdict was read from the data and is not stated in words by the source. Tags and fusion partners may be left off the protein sequences shown.

Assays:
[1] = target: T1, QDE-1Tte catalytic fragment (Thielavia terrestris) (UniProt G2R911); test: negative-stain EM; settings: 5 mM Mg2+ (dilution buffer), 1.3 uM protein, 1.7 uM DNA, ssDNA density not unambiguously assigned at 20 A; recombinant protein; protein details: His tag, TEV cleavage site; single-stranded DNA
T1 sequence (looked up, limits assumed): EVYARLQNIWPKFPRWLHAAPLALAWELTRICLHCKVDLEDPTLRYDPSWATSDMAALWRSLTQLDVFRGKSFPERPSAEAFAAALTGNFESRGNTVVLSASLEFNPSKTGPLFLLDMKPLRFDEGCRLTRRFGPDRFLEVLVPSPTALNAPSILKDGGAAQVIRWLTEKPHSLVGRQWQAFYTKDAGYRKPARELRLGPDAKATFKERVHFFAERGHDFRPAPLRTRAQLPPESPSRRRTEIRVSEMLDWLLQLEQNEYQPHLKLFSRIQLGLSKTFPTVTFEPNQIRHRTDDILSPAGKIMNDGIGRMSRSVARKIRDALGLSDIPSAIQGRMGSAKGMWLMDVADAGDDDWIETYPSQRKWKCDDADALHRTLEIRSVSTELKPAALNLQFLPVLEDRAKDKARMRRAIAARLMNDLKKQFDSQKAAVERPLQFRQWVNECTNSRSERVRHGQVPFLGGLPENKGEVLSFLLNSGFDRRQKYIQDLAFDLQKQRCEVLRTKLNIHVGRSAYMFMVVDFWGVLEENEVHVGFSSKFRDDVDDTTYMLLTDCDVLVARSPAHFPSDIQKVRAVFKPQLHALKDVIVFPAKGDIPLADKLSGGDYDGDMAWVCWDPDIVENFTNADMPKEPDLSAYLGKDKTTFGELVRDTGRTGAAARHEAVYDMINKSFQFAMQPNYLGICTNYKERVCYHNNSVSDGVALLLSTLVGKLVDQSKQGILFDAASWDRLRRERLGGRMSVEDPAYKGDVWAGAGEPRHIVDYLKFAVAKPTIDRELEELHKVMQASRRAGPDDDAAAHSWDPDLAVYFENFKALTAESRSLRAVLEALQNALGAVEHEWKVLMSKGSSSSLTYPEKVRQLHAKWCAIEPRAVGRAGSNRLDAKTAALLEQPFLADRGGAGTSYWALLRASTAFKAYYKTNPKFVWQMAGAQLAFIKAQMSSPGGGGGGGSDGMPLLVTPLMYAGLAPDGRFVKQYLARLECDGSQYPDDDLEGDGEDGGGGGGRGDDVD

[2] = target: T2, QDE-1Ncr catalytic fragment (QDE-1ΔN) (Neurospora crassa) (UniProt Q1K6C4); test: filter binding; settings: 2 mM Mg2+, apparent Kd determined but value not in the text; Filter binding: 50 mM HEPES-NaOH pH 7.8, 0.1 mM EDTA, 2% (v/v) Triton X-100, 100 mM NH4OAc, 2 mM MgCl2, 1 uM protein, 0.03-10 uM ssDNA, 10 min at 20 C; recombinant protein; protein details: His tag; label: 5'-32P; single-stranded DNA
T2 sequence (looked up, limits assumed): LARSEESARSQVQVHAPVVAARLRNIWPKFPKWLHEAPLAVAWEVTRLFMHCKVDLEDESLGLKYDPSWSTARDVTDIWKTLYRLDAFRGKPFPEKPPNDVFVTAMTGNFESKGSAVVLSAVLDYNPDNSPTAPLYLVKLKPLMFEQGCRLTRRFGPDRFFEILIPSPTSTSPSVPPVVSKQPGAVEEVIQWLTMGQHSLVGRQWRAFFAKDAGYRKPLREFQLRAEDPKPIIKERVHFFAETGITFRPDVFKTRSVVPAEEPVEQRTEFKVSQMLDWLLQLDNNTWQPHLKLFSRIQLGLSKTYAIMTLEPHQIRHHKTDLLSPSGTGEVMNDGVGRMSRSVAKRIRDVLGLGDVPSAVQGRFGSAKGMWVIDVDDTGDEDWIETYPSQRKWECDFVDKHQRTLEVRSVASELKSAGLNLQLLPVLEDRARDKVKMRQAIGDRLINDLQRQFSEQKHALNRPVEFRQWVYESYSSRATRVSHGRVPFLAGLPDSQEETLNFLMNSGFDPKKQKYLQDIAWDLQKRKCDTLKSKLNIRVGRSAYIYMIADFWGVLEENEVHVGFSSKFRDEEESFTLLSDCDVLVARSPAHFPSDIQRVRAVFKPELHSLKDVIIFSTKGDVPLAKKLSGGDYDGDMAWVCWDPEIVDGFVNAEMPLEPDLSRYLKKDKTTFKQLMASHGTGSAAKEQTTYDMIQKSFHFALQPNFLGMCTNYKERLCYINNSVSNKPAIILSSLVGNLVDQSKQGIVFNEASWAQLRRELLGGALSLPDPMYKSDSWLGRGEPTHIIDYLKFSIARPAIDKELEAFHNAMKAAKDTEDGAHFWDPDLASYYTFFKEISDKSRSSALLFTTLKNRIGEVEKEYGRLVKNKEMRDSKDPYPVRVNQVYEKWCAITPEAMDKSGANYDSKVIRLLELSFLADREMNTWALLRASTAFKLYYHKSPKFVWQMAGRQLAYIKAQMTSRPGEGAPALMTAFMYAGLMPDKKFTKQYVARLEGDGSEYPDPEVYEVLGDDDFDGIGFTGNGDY

[3] = target: T1, QDE-1Tte catalytic fragment (Thielavia terrestris); test: filter binding; settings: 2 mM Mg2+, value derived from '1.7 uM, ~10-fold higher than the apparent Kd', exact Kd only in Fig. 5; Filter binding: 50 mM HEPES-NaOH pH 7.8, 0.1 mM EDTA, 2% (v/v) Triton X-100, 100 mM NH4OAc, 2 mM MgCl2, 1 uM protein, 0.03-10 uM ssDNA, 10 min at 20 C; recombinant protein; protein details: His tag, TEV cleavage site; label: 5'-32P; single-stranded DNA

Row | Sequence | binding result [1] | binding result [2] | Kd [3] [nM]
1 | CCTTAATTGTATAG [14-nt ssDNA oligonucleotide (EM)] | binds |  | 
2 | CTTACTTGTATGGACATT [18-nt ssDNA oligonucleotide] |  | binds | 170
